In patent US6890716:
No constants are given. Whether binding was seen depends on the method and setting. Some results given as binding are weak or reduced against the parent protein; the word gives no strength. For some assays here: Tags and fused reporters may be left off the sequences shown.

The chains behind the UniProt entries cited, without tags or fusion partners. Where a name states a change or a piece, a line headed by the entry shows the natural chain unless it says otherwise.
UniProt P10415: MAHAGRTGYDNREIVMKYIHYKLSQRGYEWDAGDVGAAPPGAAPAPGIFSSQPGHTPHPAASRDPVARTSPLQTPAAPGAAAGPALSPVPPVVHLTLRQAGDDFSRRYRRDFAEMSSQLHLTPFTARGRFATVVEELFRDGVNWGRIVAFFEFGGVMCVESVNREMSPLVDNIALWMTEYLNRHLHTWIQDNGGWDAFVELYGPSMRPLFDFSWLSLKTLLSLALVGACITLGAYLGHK
UniProt Q07817: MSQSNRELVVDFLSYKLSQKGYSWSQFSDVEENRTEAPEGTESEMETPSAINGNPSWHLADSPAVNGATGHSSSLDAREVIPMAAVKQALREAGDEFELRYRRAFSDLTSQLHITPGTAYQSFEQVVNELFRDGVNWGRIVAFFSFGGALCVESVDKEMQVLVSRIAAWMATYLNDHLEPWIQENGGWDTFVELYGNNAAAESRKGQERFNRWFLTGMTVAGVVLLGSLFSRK
UniProt Q9NYF8: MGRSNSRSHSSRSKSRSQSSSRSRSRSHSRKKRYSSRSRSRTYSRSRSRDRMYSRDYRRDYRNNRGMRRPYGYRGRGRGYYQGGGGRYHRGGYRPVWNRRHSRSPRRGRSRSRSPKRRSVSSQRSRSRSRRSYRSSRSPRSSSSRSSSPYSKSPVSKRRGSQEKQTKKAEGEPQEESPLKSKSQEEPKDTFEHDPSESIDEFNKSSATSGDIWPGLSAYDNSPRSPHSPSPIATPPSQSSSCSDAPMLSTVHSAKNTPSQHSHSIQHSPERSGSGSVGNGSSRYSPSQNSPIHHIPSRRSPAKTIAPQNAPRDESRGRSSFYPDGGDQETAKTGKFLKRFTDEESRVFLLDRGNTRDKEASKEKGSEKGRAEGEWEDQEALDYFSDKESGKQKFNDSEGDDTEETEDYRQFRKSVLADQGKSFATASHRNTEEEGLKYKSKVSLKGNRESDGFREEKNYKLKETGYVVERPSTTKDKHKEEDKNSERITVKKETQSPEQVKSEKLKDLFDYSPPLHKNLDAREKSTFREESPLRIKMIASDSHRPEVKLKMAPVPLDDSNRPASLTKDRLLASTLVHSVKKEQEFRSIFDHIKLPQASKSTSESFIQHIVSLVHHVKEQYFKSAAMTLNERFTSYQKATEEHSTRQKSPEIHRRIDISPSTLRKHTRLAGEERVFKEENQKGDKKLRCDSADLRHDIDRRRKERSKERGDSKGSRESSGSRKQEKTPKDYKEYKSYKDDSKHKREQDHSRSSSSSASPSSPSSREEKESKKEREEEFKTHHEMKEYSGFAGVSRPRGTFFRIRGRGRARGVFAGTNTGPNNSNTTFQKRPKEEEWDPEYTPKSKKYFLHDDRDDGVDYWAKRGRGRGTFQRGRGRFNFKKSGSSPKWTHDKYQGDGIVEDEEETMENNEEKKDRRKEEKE
UniProt Q07812: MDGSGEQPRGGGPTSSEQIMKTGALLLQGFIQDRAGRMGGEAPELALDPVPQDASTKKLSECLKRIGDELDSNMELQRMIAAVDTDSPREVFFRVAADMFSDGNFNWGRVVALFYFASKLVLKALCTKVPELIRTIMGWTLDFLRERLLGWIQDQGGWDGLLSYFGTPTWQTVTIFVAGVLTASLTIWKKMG

Tests used:
[1] = target: Bcl-xL two-hybrid fusion (pGBT8-Bcl-xL) (UniProt P04386); test: yeast two-hybrid
[2] = target: T1, V5/His-E1B 19K (C-terminally V5/His tagged E1B 19K) (adenovirus) (UniProt P03246); test: in vitro translated proteins, immunoprecipitation with anti-Myc antibody
T1 sequence: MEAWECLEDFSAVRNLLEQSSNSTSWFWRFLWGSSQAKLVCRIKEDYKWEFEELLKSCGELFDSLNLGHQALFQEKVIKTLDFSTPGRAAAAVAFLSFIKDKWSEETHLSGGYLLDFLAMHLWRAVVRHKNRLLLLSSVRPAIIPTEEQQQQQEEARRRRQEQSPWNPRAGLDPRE

[3] = target: Bcl-2 (pcDNA3-Bcl-2) (human) (UniProt P10415); test: as above
[4] = target: Flag-Bcl-xL (pcDNA3-Flag-Bcl-xL) (UniProt Q07817); test: as above
[5] = target: Bcl-2 (pcDNA3-Bcl-2) (human) (UniProt P10415); test: in vitro translated proteins, immunoprecipitation with anti-Myc antibody, figure legend
[6] = target: T1, V5/His-E1B 19K (C-terminally V5/His tagged E1B 19K) (adenovirus); test: as above
[7] = target: Flag-Bcl-xL (pcDNA3-Flag-Bcl-xL) (UniProt Q07817); test: as above

Row | binding [1] | Substance | binding [2] | binding [3] | binding [4] | binding [5] | binding [6] | binding [7]
1 | binds | BtfS in the yeast two-hybrid assay (pGAD-GH-BtfS) (from UniProt Q9NYF8 1-920) | – | – | – | – | – | –
2 | – | Myc-Bax (from UniProt Q07812 1-192) | binds | – | – | – | – | –
3 | – | Myc-BtfS (pcDNA3-Myc-BtfS) (from UniProt Q9NYF8 1-920) | binds | binds | binds | binds | binds | binds
